These are yes or no findings as the source states them, for the method shown. Binding seen in cells or lysates may run through a third protein. Some results given as binding are weak or reduced against the parent protein; the word gives no strength.
Biological target: v-myc avian myelocytomatosis viral oncogene neuroblastoma derived homolog (MYCN) (human (endogenous in SK-N-BE(2)-C)) (UniProt P04198)
Experiment: co-IP; 750 µg lysate of SK-N-BE(2)-C cells (BC100 buffer: 20 mM Tris-HCl pH 7.9, 100 mM NaCl, 10% glycerol, 0.2 mM EDTA, 0.2% Triton X-100) incubated with MYCN or control mouse IgG antibody, captured by Gammabind G-Sepharose beads, blotted for PA2G4; cells treated for 1 h with #5333 (53 µM) or #5338 (47 µM)

Chains of the proteins cited; added tags and fusions are not shown.
UniProt P04198: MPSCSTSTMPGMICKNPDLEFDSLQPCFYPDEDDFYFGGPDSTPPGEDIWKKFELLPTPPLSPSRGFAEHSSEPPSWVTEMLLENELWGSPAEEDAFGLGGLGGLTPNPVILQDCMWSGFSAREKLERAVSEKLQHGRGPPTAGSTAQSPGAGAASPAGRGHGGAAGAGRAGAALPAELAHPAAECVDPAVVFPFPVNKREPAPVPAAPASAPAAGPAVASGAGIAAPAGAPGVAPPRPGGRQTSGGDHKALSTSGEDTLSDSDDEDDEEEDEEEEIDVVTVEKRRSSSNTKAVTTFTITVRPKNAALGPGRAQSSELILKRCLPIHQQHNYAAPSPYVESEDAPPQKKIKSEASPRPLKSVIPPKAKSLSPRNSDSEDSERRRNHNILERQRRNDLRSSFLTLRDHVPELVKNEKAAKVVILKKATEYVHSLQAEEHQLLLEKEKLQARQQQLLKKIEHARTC

B1: proliferation-associated protein 2G4 (PA2G4) (protein, UniProt Q9UQ80 1-394)
chain: MSGEDEQQEQTIAEDLVVTKYKMGGDIANRVLRSLVEASSSGVSVLSLCEKGDAMIMEETGKIFKKEKEMKKGIAFPTSISVNNCVCHFSPLKSDQDYILKEGDLVKIDLGVHVDGFIANVAHTFVVDVAQGTQVTGRKADVIKAAHLCAEAALRLVKPGNQNTQVTEAWNKVAHSFNCTPIEGMLSHQLKQHVIDGEKTIIQNPTDQQKKDHEKAEFEVHEVYAVDVLVSSGEGKAKDAGQRTTIYKRDPSKQYGLKMKTSRAFFSEVERRFDAMPFTLRAFEDEKKARMGVVECAKHELLQPFNVLYEKEGEFVAQFKFTVLLMPNGPMRITSGPFEPDLYKSEMEVQDAELKALLQSSASRKTQKKKKKKASKTAENATSGETLEENEAGD
For B1, the binding was “binds”.
